Results as given in the supplement of paper PMC10849652.
The other results are listed elsewhere or left out. Residues, ends and D or L forms follow the SMILES beside them. *: point of attachment. Cbz = O=C(OCc1ccccc1)*

The chains behind the UniProt entries cited, without tags or fusion partners. Where a name states a change or a piece, a line headed by the entry shows the natural chain unless it says otherwise.
UniProt Q86UB9: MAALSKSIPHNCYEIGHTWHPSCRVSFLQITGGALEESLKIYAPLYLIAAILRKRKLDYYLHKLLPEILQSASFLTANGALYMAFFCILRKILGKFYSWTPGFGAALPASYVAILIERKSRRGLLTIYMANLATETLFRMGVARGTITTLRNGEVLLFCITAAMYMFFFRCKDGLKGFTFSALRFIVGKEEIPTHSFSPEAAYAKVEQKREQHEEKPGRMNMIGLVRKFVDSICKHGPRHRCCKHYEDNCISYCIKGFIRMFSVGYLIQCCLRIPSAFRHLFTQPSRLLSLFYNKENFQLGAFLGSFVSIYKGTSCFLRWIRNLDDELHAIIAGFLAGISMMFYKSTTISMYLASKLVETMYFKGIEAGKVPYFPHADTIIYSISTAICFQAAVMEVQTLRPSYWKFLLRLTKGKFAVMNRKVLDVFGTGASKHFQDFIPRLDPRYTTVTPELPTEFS
UniProt Q15363: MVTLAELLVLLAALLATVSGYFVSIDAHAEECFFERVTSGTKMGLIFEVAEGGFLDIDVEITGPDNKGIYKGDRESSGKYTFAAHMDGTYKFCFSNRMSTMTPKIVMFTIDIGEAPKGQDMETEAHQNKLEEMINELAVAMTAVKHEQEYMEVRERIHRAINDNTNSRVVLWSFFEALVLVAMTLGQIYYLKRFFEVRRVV
UniProt Q71RG4: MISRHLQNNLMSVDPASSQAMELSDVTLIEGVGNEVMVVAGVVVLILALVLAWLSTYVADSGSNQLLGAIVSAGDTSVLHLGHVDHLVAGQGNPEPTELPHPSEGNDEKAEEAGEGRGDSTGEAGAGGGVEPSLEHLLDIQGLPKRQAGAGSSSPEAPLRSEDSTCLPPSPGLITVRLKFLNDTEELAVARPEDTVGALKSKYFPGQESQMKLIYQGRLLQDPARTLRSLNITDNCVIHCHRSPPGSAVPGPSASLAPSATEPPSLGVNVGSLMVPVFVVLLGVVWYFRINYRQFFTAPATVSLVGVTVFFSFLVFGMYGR
UniProt Q9NWD8: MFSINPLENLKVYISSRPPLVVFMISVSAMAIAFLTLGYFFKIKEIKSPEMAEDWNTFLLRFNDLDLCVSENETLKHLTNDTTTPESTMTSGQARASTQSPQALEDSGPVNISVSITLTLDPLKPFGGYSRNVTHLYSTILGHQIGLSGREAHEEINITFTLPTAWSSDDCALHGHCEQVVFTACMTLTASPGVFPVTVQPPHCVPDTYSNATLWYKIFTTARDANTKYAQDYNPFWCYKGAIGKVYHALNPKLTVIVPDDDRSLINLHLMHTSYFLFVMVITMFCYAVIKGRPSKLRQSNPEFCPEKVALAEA
UniProt Q8N511: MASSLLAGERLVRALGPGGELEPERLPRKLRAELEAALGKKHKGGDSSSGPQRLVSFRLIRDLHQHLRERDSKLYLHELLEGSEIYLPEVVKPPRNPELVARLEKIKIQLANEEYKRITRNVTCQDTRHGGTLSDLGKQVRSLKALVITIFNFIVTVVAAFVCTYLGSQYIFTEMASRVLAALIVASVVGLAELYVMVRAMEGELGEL
UniProt Q9H1E5: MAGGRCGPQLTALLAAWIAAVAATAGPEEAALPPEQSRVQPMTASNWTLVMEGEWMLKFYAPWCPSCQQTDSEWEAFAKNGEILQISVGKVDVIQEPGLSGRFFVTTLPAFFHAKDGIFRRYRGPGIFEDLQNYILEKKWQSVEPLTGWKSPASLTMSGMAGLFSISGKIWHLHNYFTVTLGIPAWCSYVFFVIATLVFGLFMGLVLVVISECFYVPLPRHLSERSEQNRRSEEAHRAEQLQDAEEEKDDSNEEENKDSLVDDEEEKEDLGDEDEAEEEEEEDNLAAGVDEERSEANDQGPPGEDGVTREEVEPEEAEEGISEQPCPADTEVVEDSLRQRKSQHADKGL
UniProt Q9BRN9: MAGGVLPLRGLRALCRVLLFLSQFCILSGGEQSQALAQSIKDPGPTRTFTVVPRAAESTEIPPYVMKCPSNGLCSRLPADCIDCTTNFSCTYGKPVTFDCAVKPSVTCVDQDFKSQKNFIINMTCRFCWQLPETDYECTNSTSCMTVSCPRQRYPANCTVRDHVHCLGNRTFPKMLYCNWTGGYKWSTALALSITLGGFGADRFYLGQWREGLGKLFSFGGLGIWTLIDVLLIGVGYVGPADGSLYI
UniProt Q8TBQ9: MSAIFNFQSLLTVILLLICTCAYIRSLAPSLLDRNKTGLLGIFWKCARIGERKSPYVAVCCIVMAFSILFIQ
UniProt Q9NX00: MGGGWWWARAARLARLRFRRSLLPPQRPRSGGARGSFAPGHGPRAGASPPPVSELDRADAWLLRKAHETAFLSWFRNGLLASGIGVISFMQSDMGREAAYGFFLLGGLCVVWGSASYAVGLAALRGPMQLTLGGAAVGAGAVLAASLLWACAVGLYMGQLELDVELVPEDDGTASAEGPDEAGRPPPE
UniProt Q9UM00: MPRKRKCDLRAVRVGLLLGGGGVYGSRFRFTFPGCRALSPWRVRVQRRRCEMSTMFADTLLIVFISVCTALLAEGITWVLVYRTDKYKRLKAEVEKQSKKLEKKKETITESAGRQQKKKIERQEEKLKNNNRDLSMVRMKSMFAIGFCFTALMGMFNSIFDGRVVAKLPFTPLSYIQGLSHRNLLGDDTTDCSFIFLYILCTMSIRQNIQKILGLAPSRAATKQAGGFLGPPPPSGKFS
UniProt Q96MH6: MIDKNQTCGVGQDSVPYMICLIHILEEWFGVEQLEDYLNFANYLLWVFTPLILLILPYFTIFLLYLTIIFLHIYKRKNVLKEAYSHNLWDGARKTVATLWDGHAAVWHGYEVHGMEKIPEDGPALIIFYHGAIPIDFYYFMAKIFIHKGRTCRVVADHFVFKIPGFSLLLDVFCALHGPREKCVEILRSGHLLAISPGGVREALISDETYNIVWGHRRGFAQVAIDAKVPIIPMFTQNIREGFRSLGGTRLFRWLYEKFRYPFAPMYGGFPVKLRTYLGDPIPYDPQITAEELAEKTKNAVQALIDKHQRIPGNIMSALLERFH
UniProt P42167: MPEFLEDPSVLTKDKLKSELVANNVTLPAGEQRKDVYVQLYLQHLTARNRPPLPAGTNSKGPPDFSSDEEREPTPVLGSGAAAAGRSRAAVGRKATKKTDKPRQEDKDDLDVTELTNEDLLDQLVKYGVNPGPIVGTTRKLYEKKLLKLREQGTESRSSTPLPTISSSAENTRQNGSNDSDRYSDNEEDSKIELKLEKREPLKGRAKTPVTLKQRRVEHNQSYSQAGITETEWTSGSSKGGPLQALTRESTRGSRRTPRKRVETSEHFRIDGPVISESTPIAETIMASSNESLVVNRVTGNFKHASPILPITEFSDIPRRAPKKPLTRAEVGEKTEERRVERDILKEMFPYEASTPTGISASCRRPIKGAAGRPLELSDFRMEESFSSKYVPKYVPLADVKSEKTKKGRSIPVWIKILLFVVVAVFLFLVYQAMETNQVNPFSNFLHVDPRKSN
UniProt Q9H3N1: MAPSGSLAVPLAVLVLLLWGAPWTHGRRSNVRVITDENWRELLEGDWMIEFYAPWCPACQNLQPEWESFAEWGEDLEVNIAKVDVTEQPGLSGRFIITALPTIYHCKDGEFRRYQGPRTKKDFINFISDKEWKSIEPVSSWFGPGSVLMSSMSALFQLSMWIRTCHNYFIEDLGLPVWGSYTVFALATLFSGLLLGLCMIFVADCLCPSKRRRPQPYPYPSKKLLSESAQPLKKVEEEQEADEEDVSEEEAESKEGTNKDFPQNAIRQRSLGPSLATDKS
UniProt Q9BTV4: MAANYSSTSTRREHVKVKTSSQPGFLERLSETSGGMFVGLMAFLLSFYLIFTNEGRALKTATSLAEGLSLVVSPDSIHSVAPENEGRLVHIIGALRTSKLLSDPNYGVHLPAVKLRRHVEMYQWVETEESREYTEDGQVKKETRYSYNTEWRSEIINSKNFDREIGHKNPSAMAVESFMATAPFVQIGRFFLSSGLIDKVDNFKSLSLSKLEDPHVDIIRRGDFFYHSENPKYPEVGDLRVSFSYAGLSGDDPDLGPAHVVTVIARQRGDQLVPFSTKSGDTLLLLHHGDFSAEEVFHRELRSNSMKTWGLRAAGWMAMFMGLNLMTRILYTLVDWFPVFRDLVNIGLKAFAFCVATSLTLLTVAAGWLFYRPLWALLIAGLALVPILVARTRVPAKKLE
UniProt Q96JJ7: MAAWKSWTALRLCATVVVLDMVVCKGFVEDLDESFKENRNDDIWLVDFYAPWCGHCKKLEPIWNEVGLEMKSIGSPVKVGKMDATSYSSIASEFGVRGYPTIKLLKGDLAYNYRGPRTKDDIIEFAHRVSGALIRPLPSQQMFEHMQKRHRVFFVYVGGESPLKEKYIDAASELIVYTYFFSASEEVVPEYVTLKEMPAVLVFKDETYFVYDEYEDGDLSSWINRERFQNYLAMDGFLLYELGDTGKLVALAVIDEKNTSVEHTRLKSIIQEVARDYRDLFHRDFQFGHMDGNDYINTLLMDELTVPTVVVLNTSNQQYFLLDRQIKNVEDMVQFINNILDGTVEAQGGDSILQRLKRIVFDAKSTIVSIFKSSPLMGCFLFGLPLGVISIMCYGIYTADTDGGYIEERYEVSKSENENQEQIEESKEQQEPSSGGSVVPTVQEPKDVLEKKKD

How the values were obtained:
Assay in all cases: log2 fold change, soluble protein after heating vs DMSO (PISA); higher = thermal stabilisation; K562 cells, 10 uM, 30 min; active = over 0.2 and 3.5 SD of the protein, either way, in both replicates (recomputed)
[1] = compound: C1COCCN1CCN2C3=CC=CC=C3N=C2NC(=O)C4=CC(=CC=C4)[N+](=O)[O-] [IRAK-1-4 Inhibitor I]
Summary of the method: (§1)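 Quantification of soluble protein used TMTpro 16plex LC-MS/MS, with channel sums equalised. Samples were the supernatant after 21,000xg for 90 min of pooled aliquots from K562 cells (2×10^6 cells/mL) treated with 10 μM compound for 30 min, heated for 3 min over 48°C-58°C, and extracted in PBS with 0.5% NP-40 at 4°C. Values, from duplicates, describe thermal stability against control samples on a log2 fold-change scale.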

[2] = compound: C=CC(=O)N1CCC[C@@H](n2nc(-c3ccc(Oc4ccccc4)cc3)c3c(N)ncnc32)C1 [ibrutinib]
Summary of the method: as §1

[3] = compound: CC(=O)c1cnc2ccc(-c3cc(Cl)c(O)c(Cl)c3)nc2c1N[C@H]1CC[C@H](CN(C)C)CC1
Summary of the method: as §1

[4] = compound: CC(C)(C)Cn1c(N)nc2ccc(-c3[nH]c(C(C)(C)C)nc3-c3ccc(F)cc3)nc21 [ralimetinib]
Summary of the method: as §1

[5] = compound: CC(C)(O)CC(=O)NCCn1ccc2ncnc(Nc3ccc(Oc4cccc(C(F)(F)F)c4)c(Cl)c3)c21
Summary of the method: as §1

[6] = compound: CC(C)C1=C2N=C(C=C(N2N=C1)NCC3=CC=CC=C3)NCCCCCCN
Summary of the method: as §1

[7] = compound: CC(C)C[C@@H](C=O)NC(=O)[C@H](CC(C)C)NC(=O)[C@H](CC(C)C)NC(=O)OCc1ccccc1
Summary of the method: as §1

[8] = compound: CC(C)N(C[C@H]1O[C@@H](n2cnc3c(N)ncnc32)[C@H](O)[C@@H]1O)[C@H]1C[C@@H](CCc2nc3cc(C(C)(C)C)ccc3[nH]2)C1 [pinometostat]
Summary of the method: as §1

[9] = compound: CC1=C(C(CC(=O)N1)C2=CC=C(C=C2)C(F)(F)F)C(=O)NC3=C(C=C4C(=C3)C=NN4)F
Summary of the method: as §1

[10] = compound: CC1=C(C2=C(C=C1)C(=O)C3=CC=CC=C3N2CCCN)C
Summary of the method: as §1

[11] = compound: CC1=C(C=C(C=C1)NC(=O)C2=CC(=CC=C2)C(C)(C)C#N)NC3=CC4=C(C=C3)N=CN(C4=O)C
Summary of the method: as §1

[12] = compound: CC1=C(C=C(C=C1)NC(=O)C2=CC(=CC=C2)N(C)C)NC(=O)C3=CC=C(C=C3)O
Summary of the method: as §1

[13] = compound: CC1=CC=C(C=C1)SC2=C3C=C(SC3=CN=C2)C(=O)N
Summary of the method: as §1

[14] = compound: CC1=NC(=CC=C1)C2=C(N=C(N2)C(C)(C)C)C3=CC4=NC=CN=C4C=C3
Summary of the method: as §1

[15] = compound: CCCCN(Cc1ccc(C(=O)NO)cc1)C(=O)Nc1ccccc1 [Nexturastat A]
Summary of the method: as §1

[16] = compound: CCCS(=O)(=O)Nc1ccc(F)c(C(=O)c2c[nH]c3ncc(-c4ccc(Cl)cc4)cc23)c1F [vemurafenib]
Summary of the method: as §1

[17] = compound: CCCS(=O)(=O)Nc1ccc(F)c(C(=O)c2c[nH]c3ncc(Cl)cc23)c1F
Summary of the method: as §1

[18] = compound: CCCc1cc(C)[nH]c(=O)c1CNC(=O)c1cc(-c2ccnc(N3CCN(C)CC3)c2)cc2c1cnn2C(C)C
Summary of the method: as §1

[19] = compound: CCN(CC)Cc1ccc2cc(COC(=O)Nc3ccc(C(=O)NO)cc3)ccc2c1 [givinostat]
Summary of the method: as §1

[20] = compound: CCN(CCCOc1ccc2c(Nc3cc(CC(=O)Nc4cccc(F)c4)[nH]n3)ncnc2c1)CCOP(=O)(O)O [barasertib]
Summary of the method: as §1

Measured: log2 fold change

TMEM135 (UniProt Q86UB9)
inactive: [1] 0.026 | [2] 0 | [3] -0.029 | [4] -0.033 | [5] -0.048 | [6] -0.035 | [7] 0.043 | [8] -0.192 | [9] 0.018 | [10] -0.029 | [11] 0.01 | [12] 0.016 | [13] -0.013 | [14] 0.045 | [15] -0.108 | [16] -0.209 | [17] -0.002 | [18] -0.041 | [19] 0.012 | [20] -0.016

TMED2 (UniProt Q15363)
inactive: [1] 0.002 | [2] 0.004 | [3] 0.026 | [4] 0.006 | [5] -0.053 | [6] -0.077 | [7] -0.055 | [8] -0.053 | [9] -0.023 | [10] 0.023 | [11] 0.004 | [12] 0.001 | [13] 0.037 | [14] 0.015 | [15] -0.066 | [16] 0.054 | [17] 0.078 | [18] -0.003 | [19] 0.009 | [20] -0.015

TMUB2 (UniProt Q71RG4)
inactive: [1] -0.041 | [2] 0.035 | [3] -0.018 | [4] 0.017 | [5] 0.022 | [6] 0.083 | [7] 0.13 | [8] -0.004 | [9] -0.041 | [10] -0.069 | [11] 0.006 | [12] -0.01 | [13] -0.135 | [14] 0.009 | [15] 0.044 | [16] -0.073 | [17] -0.025 | [18] -0.036 | [19] 0.012 | [20] -0.019

TMEM248 (UniProt Q9NWD8)
inactive: [1] 0.041 | [2] 0.017 | [3] 0.054 | [4] -0.042 | [5] 0.084 | [6] -0.011 | [7] 0.184 | [8] -0.028 | [9] 0.059 | [10] -0.137 | [11] 0.021 | [12] 0.031 | [13] 0.032 | [14] -0.018 | [15] -0.193 | [16] -0.076 | [17] -0.023 | [18] -0.038 | [19] 0.11 | [20] -0.008

TMEM199 (UniProt Q8N511)
inactive: [1] 0.03 | [2] 0.027 | [3] -0.044 | [4] -0.032 | [5] -0.002 | [6] -0.003 | [7] -0.006 | [8] -0.005 | [9] -0.02 | [10] 0.2 | [11] -0.008 | [12] -0.052 | [13] 0.025 | [14] -0.061 | [15] -0.01 | [16] -0.062 | [17] 0.006 | [18] -0.043 | [19] 0.014 | [20] -0.007

TMX4 (UniProt Q9H1E5)
inactive: [1] -0.02 | [2] -0.006 | [3] -0.052 | [4] 0.028 | [5] 0.017 | [6] 0.032 | [7] -0.01 | [8] 0.049 | [9] -0.015 | [10] 0.045 | [11] -0.009 | [12] 0.032 | [13] -0.067 | [14] -0.092 | [15] 0.005 | [16] -0.023 | [17] -0.085 | [18] -0.024 | [19] 0 | [20] 0.03

TM2D3 (UniProt Q9BRN9)
inactive: [1] -0.139 | [2] 0.075 | [3] -0.097 | [4] -0.127 | [5] -0.03 | [6] -0.062 | [7] 0.119 | [8] 0.008 | [9] 0.023 | [10] -0.12 | [11] -0.04 | [12] -0.121 | [13] 0.035 | [14] -0.081 | [15] 0.058 | [16] 0.096 | [17] 0.006 | [18] -0.353 | [19] 0.006 | [20] -0.033

TMEM167A (UniProt Q8TBQ9)
inactive: [1] 0.048 | [2] 0.064 | [3] -0.005 | [4] -0.038 | [5] -0.027 | [6] 0.08 | [7] 0.034 | [8] -0.01 | [9] -0.016 | [10] -0.067 | [11] 0.06 | [12] -0.037 | [13] -0.006 | [14] 0.027 | [15] -0.047 | [16] -0.165 | [17] 0.038 | [18] -0.116 | [19] -0.042 | [20] 0.008

TMEM160 (UniProt Q9NX00)
inactive: [1] 0.16 | [2] 0.075 | [3] -0.04 | [4] -0.038 | [5] -0.032 | [6] -0.106 | [7] -0.076 | [8] 0.217 | [9] 0.014 | [10] -0.011 | [11] -0.037 | [12] -0.005 | [13] -0.052 | [14] -0.213 | [15] 0.083 | [16] -0.083 | [17] 0.049 | [18] 0.062 | [19] -0.005 | [20] -0.039

TMEM245 (UniProt Q9H330)
inactive: [1] 0.026 | [2] -0.006 | [3] 0.036 | [4] -0.105 | [5] 0.009 | [6] 0.037 | [7] -0.019 | [8] -0.029 | [9] -0.008 | [10] -0.004 | [11] -0.03 | [12] 0.035 | [13] -0.007 | [14] 0.017 | [15] -0.089 | [16] 0.01 | [17] -0.007 | [18] -0.015 | [19] -0.017 | [20] -0.003

TMCO1 (UniProt Q9UM00)
inactive: [1] 0.083 | [2] -0.04 | [3] -0.061 | [4] -0.147 | [5] 0.006 | [6] -0.11 | [7] -0.05 | [8] -0.025 | [9] 0 | [10] 0.051 | [11] 0.01 | [12] -0.035 | [13] -0.088 | [14] 0.066 | [15] -0.161 | [16] 0.081 | [17] -0.18 | [18] -0.031 | [19] 0.075 | [20] 0.01

TMEM68 (UniProt Q96MH6)
inactive: [1] -0.024 | [2] 0.056 | [3] -0.002 | [4] -0.026 | [5] -0.035 | [6] -0.017 | [7] 0.027 | [8] -0.04 | [9] 0 | [10] 0.034 | [11] -0.045 | [12] -0.002 | [13] -0.027 | [14] -0.001 | [15] 0.015 | [16] 0.013 | [17] 0.038 | [18] 0.012 | [19] 0.014 | [20] -0.041

TMPO (UniProt P42167)
inactive: [1] 0.004 | [2] -0.009 | [3] 0.091 | [4] -0.024 | [5] -0.022 | [6] 0.015 | [7] -0.007 | [8] 0.041 | [9] 0.099 | [10] -0.02 | [11] 0.006 | [12] 0.023 | [13] -0.013 | [14] 0.01 | [15] -0.071 | [16] 0.007 | [17] -0.01 | [18] -0.02 | [19] -0.007 | [20] -0.005

TMX1 (UniProt Q9H3N1)
inactive: [1] 0.013 | [2] -0.022 | [3] -0.002 | [4] -0.037 | [5] 0.028 | [6] 0.014 | [7] -0.012 | [8] -0.006 | [9] -0.009 | [10] 0.012 | [11] -0.025 | [12] 0.023 | [13] -0.031 | [14] -0.017 | [15] -0.049 | [16] -0.013 | [17] -0.009 | [18] 0 | [19] -0.04 | [20] -0.008

TMEM43 (UniProt Q9BTV4)
inactive: [1] -0.049 | [2] -0.008 | [3] 0.042 | [4] 0.012 | [5] 0.006 | [6] -0.188 | [7] 0.02 | [8] 0.073 | [9] -0.041 | [10] 0 | [11] 0.01 | [12] -0.011 | [13] -0.023 | [14] -0.049 | [15] 0.04 | [16] -0.016 | [17] -0.031 | [18] 0.035 | [19] -0.002 | [20] 0.013

TMX3 (UniProt Q96JJ7)
inactive: [1] -0.012 | [2] -0.027 | [3] -0.034 | [4] -0.074 | [5] -0.034 | [6] 0.041 | [7] -0.005 | [8] 0.043 | [9] 0.019 | [10] 0.026 | [11] 0.074 | [12] -0.006 | [13] -0.008 | [14] -0.027 | [15] -0.056 | [16] 0.007 | [17] -0.017 | [18] 0.005 | [19] -0.026 | [20] 0.019
